For this experiment, the target named is full length ZNFX1 expressed in insect cells (ZNFX1FL) (human) (UniProt Q9P2E3). Description: SDS-PAGE of LDS-resistant high molecular weight species.

These are yes or no findings as the source states them, for the method shown.

B1: full length ZNFX1 expressed in insect cells (ZNFX1FL) (enzyme)
chain: MEERRPHLDARPRNSHTNHRGPVDGELPPRARNQANNPPANALRGGASHPGRHPRANNHPAAYWQREERFRAMGRNPHQGRRNQEGHASDEARDQRHDQENDTRWRNGNQDCRNRRPPWSNDNFQQWRTPHQKPTEQPQQAKKLGYKFLESLLQKDPSEVVITLATSLGLKELLSHSSMKSNFLELICQVLRKACSSKMDRQSVLHVLGILKNSKFLKVCLPAYVVGMITEPIPDIRNQYPEHISNIISLLQDLVSVFPASSVQETSMLVSLLPTSLNALRASGVDIEEETEKNLEKVQTIIEHLQEKRREGTLRVDTYTLVQPEAEDHVESYRTMPIYPTYNEVHLDERPFLRPNIISGKYDSTAIYLDTHFRLLREDFVRPLREGILELLQSFEDQGLRKRKFDDIRIYFDTRIITPMCSSSGIVYKVQFDTKPLKFVRWQNSKRLLYGSLVCMSKDNFETFLFATVSNREQEDLCRGIVQLCFNEQSQQLLAEVQPSDSFLMVETTAYFEAYRHVLEGLQEVQEEDVPFQRNIVECNSHVKEPRYLLMGGRYDFTPLIENPSATGEFLRNVEGLRHPRINVLDPGQWPSKEALKLDDSQMEALQFALTRELAIIQGPPGTGKTYVGLKIVQALLTNESVWQISLQKFPILVVCYTNHALDQFLEGIYNCQKTSIVRVGGRSNSEILKQFTLRELRNKREFRRNLPMHLRRAYMSIMTQMKESEQELHEGAKTLECTMRGVLREQYLQKYISPQHWESLMNGPVQDSEWICFQHWKHSMMLEWLGLGVGSFTQSVSPAGPENTAQAEGDEEEEGEEESSLIEIAEEADLIQADRVIEEEEVVRPQRRKKEESGADQELAKMLLAMRLDHCGTGTAAGQEQATGEWQTQRNQKKKMKKRVKDELRKLNTMTAAEANEIEDVWQLDLSSRWQLYRLWLQLYQADTRRKILSYERQYRTSAERMAELRLQEDLHILKDAQVVGMTTTGAAKYRQILQKVEPRIVIVEEAAEVLEAHTIATLSKACQHLILIGDHQQLRPSANVYDLAKNFNLEVSLFERLVKVNIPFVRLNYQHRMCPEIARLLTPHIYQDLENHPSVLKYEKIKGVSSNLFFVEHNFPEQEIQEGKSHQNQHEAHFVVELCKYFLCQEYLPSQITILTTYTGQLFCLRKLMPAKTFAGVRVHVVDKYQGEENDIILLSLVRSNQEGKVGFLQISNRICVALSRAKKGMYCIGNMQMLAKVPLWSKIIHTLRENNQIGPMLRLCCQNHPETHTLVSKASDFQKVPEGGCSLPCEFRLGCGHVCTRACHPYDSSHKEFQCMKPCQKVICQEGHRCPLVCFQECQPCQVKVPKTIPRCGHEQMVPCSVPESDFCCQEPCSKSLRCGHRCSHPCGEDCVQLCSEMVTIKLKCGHSQPVKCGHVEGLLYGGLLVKCTTKCGTILDCGHPCPGSCHSCFEGRFHERCQQPCKRLLICSHKCQEPCIGECPPCQRTCQNRCVHSQCKKKCGELCSPCVEPCVWRCQHYQCTKLCSEPCNRPPCYVPCTKLLVCGHPCIGLCGEPCPKKCRICHMDEVTQIFFGFEDEPDARFVQLEDCSHIFEVQALDRYMNEQKDDEVAIRLKVCPICQVPIRKNLRYGTSIKQRLEEIEIIKEKIQGSAGEIATSQERLKALLERKSLLHQLLPEDFLMLKEKLAQKNLSVKDLGLVENYISFYDHLASLWDSLKKMHVLEEKRVRTRLEQVHEWLAKKRLSFTSQELSDLRSEIQRLTYLVNLLTRYKIAEKKVKDSIAVEVYSVQNILEKTCKFTQEDEQLVQEKMEALKATLPCSGLGISEEERVQIVSAIGYPRGHWFKCRNGHIYVIGDCGGAMERGTCPDCKEVIGGTNHTLERSNQLASEMDGAQHAAWSDTANNLMNFEEIQGMM
For B1, the binding entry is listed as “no binding (condition: without E2∼Ub)”.

Values taken from article doi:10.1101/2025.09.05.674436 (bioRxiv, 2025).
